# Source: the supplement of paper PMC11732987, “Enantioselective OTUD7B fragment discovery through chemoproteomics screening and high-throughput optimisation” (Communications Chemistry, 2025)
# By UniProt entry, the sequences of proteins in these tests, tags left out. Where a name states a change or a piece, a line headed by the entry shows the natural chain unless it says otherwise. Residues count along the entry.
# UniProt Q9NS86: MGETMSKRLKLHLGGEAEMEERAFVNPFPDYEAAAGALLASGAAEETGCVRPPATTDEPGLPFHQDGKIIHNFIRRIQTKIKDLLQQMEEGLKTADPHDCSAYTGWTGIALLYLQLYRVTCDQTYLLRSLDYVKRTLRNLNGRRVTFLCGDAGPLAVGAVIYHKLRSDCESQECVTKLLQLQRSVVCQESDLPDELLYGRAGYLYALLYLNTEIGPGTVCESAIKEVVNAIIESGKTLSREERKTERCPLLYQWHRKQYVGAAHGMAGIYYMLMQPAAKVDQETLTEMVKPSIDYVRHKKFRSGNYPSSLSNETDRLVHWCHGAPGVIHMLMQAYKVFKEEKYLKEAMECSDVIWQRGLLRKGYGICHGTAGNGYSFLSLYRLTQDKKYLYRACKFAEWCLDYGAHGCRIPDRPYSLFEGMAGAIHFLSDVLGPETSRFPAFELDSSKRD
# UniProt Q7L5N7, 206-226: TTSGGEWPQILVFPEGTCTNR
# UniProt Q8NG31: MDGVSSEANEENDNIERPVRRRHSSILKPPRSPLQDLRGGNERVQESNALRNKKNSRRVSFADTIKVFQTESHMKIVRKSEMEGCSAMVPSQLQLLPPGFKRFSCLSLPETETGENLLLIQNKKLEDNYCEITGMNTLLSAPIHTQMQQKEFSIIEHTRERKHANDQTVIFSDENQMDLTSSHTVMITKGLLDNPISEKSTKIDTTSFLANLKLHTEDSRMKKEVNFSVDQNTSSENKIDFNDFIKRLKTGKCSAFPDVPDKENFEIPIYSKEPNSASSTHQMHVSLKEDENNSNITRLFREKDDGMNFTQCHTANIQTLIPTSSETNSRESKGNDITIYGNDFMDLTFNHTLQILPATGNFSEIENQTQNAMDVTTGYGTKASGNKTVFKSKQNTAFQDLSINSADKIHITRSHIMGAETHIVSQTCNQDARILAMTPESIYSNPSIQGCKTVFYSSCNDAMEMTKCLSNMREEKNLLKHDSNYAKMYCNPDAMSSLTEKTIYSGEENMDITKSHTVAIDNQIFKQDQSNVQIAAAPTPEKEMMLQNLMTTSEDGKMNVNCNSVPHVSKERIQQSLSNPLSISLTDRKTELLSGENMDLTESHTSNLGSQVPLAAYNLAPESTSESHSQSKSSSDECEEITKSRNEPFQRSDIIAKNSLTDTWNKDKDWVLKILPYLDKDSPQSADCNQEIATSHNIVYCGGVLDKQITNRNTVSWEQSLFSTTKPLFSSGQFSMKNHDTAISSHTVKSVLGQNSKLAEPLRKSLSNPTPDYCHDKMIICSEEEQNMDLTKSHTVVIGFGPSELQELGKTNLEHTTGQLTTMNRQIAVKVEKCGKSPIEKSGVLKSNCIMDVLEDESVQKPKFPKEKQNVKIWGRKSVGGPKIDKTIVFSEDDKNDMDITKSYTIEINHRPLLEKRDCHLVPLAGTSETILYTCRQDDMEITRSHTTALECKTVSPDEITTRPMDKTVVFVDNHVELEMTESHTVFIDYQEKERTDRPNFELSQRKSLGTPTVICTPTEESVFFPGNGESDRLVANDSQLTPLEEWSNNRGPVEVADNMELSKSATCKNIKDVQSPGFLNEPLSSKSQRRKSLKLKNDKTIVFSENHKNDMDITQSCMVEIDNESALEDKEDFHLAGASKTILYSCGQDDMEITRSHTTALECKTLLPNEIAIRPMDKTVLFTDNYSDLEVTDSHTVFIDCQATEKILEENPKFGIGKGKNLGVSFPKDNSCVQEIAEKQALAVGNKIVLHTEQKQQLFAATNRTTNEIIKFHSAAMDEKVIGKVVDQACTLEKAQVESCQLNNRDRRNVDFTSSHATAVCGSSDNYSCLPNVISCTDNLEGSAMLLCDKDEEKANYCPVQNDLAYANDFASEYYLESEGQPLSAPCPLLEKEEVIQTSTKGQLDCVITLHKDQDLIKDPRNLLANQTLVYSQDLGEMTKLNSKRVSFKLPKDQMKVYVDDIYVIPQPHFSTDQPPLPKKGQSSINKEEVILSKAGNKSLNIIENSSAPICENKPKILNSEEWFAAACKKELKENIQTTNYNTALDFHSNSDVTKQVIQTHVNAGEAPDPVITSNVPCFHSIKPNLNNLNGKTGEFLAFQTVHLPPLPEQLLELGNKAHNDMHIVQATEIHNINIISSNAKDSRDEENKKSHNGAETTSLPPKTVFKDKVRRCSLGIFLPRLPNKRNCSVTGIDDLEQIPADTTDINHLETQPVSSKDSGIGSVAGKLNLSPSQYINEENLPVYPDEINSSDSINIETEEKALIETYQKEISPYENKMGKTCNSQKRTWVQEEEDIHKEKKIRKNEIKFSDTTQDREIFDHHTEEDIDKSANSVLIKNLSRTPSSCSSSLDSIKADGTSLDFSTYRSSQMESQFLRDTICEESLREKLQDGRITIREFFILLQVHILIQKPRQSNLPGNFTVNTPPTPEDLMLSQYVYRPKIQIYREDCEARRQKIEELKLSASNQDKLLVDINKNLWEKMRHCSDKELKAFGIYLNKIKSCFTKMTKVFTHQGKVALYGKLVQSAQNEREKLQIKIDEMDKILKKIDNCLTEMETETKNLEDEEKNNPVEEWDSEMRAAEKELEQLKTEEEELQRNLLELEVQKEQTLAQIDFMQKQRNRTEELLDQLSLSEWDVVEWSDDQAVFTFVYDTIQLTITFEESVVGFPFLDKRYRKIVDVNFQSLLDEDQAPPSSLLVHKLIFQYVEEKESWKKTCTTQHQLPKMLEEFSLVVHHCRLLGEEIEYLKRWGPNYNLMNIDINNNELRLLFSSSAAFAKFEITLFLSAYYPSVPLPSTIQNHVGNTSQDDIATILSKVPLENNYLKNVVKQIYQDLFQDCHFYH
# UniProt O95202, 527-554: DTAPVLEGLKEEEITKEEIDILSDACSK
# UniProt Q92845: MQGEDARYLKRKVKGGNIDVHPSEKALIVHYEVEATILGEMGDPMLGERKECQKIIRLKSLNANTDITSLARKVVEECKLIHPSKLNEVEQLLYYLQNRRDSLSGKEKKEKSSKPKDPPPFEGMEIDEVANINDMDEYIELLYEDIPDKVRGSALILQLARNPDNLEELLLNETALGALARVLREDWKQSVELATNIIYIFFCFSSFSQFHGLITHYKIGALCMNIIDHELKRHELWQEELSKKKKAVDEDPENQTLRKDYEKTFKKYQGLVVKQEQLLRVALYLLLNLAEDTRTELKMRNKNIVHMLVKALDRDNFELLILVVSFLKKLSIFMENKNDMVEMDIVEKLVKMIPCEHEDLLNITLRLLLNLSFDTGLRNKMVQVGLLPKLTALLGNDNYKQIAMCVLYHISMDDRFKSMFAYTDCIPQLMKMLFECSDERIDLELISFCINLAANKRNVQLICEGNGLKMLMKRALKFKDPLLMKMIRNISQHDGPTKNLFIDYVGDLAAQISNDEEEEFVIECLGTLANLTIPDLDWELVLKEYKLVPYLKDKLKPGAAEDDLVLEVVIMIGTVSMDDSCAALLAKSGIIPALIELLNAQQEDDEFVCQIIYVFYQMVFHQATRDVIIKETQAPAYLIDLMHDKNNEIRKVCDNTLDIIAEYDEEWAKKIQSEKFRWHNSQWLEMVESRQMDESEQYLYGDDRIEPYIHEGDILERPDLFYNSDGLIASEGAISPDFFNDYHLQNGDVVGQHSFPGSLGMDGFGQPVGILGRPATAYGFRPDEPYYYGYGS
# UniProt P50748: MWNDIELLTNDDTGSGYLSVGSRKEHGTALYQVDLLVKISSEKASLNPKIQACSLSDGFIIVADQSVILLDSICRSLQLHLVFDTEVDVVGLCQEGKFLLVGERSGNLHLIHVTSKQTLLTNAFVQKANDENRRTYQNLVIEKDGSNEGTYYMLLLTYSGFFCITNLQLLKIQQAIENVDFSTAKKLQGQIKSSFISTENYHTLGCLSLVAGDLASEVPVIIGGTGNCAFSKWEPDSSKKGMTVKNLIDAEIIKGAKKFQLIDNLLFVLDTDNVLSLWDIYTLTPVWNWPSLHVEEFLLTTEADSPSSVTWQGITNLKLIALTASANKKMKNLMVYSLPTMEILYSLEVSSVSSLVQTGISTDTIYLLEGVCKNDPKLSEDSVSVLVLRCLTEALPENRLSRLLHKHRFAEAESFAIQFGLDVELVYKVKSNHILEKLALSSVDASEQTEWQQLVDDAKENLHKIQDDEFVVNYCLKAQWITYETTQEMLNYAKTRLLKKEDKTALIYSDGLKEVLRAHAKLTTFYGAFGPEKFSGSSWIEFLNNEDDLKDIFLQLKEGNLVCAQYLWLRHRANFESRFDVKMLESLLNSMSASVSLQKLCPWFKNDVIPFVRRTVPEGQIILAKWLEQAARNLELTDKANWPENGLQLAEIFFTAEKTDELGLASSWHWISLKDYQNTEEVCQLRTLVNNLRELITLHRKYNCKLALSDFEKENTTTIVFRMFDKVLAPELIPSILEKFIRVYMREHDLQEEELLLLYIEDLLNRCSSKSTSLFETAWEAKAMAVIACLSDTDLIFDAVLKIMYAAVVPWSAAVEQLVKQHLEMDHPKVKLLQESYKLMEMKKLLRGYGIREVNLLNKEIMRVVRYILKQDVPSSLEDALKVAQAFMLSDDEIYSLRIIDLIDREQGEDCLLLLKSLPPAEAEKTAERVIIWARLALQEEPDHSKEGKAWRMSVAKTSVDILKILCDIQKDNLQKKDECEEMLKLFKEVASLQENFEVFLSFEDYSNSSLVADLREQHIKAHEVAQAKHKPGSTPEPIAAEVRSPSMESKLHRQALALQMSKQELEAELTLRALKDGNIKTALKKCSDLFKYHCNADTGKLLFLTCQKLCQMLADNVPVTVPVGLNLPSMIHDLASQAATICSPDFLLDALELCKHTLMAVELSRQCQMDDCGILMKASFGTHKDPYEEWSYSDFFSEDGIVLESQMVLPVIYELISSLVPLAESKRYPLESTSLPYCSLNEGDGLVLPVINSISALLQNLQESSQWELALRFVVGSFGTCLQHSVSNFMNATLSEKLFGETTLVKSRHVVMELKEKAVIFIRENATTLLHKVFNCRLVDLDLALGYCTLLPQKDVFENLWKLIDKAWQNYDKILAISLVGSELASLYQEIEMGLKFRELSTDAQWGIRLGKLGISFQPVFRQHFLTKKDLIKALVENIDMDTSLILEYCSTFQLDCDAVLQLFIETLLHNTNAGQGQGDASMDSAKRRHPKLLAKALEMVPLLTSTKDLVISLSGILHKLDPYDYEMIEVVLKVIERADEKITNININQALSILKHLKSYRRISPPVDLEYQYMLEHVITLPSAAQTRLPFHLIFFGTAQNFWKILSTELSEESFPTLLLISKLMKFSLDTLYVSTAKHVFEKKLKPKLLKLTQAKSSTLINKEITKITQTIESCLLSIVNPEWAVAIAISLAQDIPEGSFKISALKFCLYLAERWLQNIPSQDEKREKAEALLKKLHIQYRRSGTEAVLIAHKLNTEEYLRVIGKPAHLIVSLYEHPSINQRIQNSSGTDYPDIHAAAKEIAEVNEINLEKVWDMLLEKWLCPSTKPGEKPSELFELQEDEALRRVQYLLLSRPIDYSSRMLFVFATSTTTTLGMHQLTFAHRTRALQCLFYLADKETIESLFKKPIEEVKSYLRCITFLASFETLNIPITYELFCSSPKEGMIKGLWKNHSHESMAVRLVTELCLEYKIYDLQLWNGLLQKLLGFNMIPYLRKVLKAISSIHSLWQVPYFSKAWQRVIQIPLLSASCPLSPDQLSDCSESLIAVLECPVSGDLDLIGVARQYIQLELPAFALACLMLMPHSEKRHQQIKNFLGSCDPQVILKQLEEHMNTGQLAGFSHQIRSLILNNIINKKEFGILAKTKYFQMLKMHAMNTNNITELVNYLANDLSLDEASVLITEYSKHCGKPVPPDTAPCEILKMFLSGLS
# UniProt P53667: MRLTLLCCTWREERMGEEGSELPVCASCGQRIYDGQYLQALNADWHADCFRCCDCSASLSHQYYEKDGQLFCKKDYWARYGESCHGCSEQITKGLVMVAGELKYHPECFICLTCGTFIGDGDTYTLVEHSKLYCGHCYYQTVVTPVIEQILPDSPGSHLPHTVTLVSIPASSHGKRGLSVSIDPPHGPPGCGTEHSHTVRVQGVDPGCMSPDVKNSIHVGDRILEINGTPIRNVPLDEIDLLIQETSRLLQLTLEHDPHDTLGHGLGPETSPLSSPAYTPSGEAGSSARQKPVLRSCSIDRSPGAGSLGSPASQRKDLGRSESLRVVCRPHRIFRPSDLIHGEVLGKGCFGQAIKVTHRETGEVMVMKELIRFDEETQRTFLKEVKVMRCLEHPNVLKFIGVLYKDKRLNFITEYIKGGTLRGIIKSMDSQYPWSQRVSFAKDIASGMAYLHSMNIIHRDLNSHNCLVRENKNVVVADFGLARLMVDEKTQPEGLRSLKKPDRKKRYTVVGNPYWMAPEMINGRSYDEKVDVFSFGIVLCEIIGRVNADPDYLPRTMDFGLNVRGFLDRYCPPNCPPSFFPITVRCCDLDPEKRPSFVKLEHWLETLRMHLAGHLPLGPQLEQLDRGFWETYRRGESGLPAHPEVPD
# The other results are listed elsewhere or left out. The data scatter; read single values as rough.
# Compound: ClCC(=O)N[C@@H]1CCCc2ccccc12
# Assay: log2 mean competition ratio of IA-DTB cysteine labelling (DMSO/compound) (log2 ratio); higher = stronger cysteine engagement by compound
# Conditions: 50 µM; treatment time: 4 h; cell line lysate: HEK293T
# Procedure: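 IA-DTB competitive cysteine chemoproteomics in HEK293T RIPA lysate. Lysates were treated with compound 29 or 30 at 50 or 200 µM for 4 h, then IA-DTB (500 µM, 1 h), trypsin-digested, NeutrAvidin-enriched and analysed by diaPASEF. Competition ratio = intensity DMSO / intensity compound (n=4 treated, n=64 DMSO); binding: mean log2 CR ≥ 1 and p ≤ 0.05 plus QC filters. Target is the cysteine site.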
row,Target,log2 mean competition ratio
1,"LARP1B C775, A0A3B3ISF0",0.0442
2,KLHL41 C147 (UniProt O60662),0.134
3,LDLR C34 (UniProt P01130),-0.17
4,KLHL9 C559 (UniProt Q9P2J3),-0.109
5,LARS1 C554,0.06
6,KMT2C C2873 (UniProt Q8NEZ4),0.0394
7,LDAH C261 (UniProt Q9H6V9),-0.0836
8,LANCL2 C121 (UniProt Q9NS86),0.479
9,LRBA C2820,-0.0284
10,LPCAT2 C223 (UniProt Q7L5N7),-0.00836
11,LANCL2 C350 (UniProt Q9NS86),-0.309
12,KNL1 C1233 (UniProt Q8NG31),0.0107
13,LIG1 C846 (UniProt P18858),0.0296
14,LAGE3 C113 (UniProt Q14657),0.112
15,LEMD3 C785 (UniProt Q9Y2U8),-0.0194
16,LETM1 C552 (UniProt O95202),-0.296
17,KIFAP3 C463 (UniProt Q92845),0.0433
18,KIF7 C1065,-0.0451
19,LCMT2 C133 (UniProt O60294),-0.0791

row,Target,log2 mean competition ratio
1,LARS1 C248,0.109
2,LRPPRC C927,-0.133
3,LARS2 C177 (UniProt Q15031),-0.233
4,KNOP1 C172 (UniProt Q1ED39),0.308
5,LARS1 C1093,-0.271
6,LACTB2 C100 (UniProt Q53H82),0.0461
7,LRPPRC C863,0.202
8,KSR1 C41 (UniProt Q8IVT5),0.327
9,KIFBP C371 (UniProt Q96EK5),0.0938
10,KNTC1 C2099 (UniProt P50748),-0.196
11,KNL1 C2216 (UniProt Q8NG31),0.0264
12,KIF5B C421 (UniProt P33176),0.00779
13,KNL1 C1291 (UniProt Q8NG31),-0.0652
14,LAP3 C129 (UniProt P28838),-0.042
15,LIMK1 C349 (UniProt P53667),-0.198
16,LMO4 C73 (UniProt P61968),-0.0284
17,L2HGDH C187 (UniProt Q9H9P8),0.165
18,KIF5C C66,-0.205

# Same assay, conditions: 200 µM; treatment time: 4 h; cell line lysate: HEK293T
row,Target,log2 mean competition ratio
1,"LARP1B C775, A0A3B3ISF0",-0.159
2,KLHL41 C147 (UniProt O60662),-0.261
3,LDLR C34 (UniProt P01130),0.407
4,KLHL9 C559 (UniProt Q9P2J3),-0.0204
5,LARS1 C554,0.362
6,KMT2C C2873 (UniProt Q8NEZ4),0.0971
7,LDAH C261 (UniProt Q9H6V9),0.0944
8,LANCL2 C121 (UniProt Q9NS86),-0.364
9,LRBA C2820,-0.18
10,LPCAT2 C223 (UniProt Q7L5N7),-0.301
11,LANCL2 C350 (UniProt Q9NS86),-0.318
12,KNL1 C1233 (UniProt Q8NG31),-0.0242
13,LIG1 C846 (UniProt P18858),-0.122
14,LAGE3 C113 (UniProt Q14657),0.457
15,LEMD3 C785 (UniProt Q9Y2U8),0.198
16,LETM1 C552 (UniProt O95202),-0.0258
17,KIFAP3 C463 (UniProt Q92845),0.391
18,KIF7 C1065,-0.135
19,LCMT2 C133 (UniProt O60294),0.0147

row,Target,log2 mean competition ratio
1,LARS1 C248,-0.0823
2,LRPPRC C927,0.0456
3,LARS2 C177 (UniProt Q15031),-0.0262
4,KNOP1 C172 (UniProt Q1ED39),0.0532
5,LARS1 C1093,0.272
6,LACTB2 C100 (UniProt Q53H82),0.0569
7,LRPPRC C863,-0.0855
8,KSR1 C41 (UniProt Q8IVT5),0.348
9,KIFBP C371 (UniProt Q96EK5),0.229
10,KNTC1 C2099 (UniProt P50748),-0.357
11,KNL1 C2216 (UniProt Q8NG31),-0.0964
12,KIF5B C421 (UniProt P33176),-0.193
13,KNL1 C1291 (UniProt Q8NG31),0.167
14,LAP3 C129 (UniProt P28838),0.0987
15,LIMK1 C349 (UniProt P53667),-0.245
16,LMO4 C73 (UniProt P61968),0.144
17,L2HGDH C187 (UniProt Q9H9P8),0.244
18,KIF5C C66,0.0971
